The source of these data is the supplement of paper PMC10849652.

Amino acid sequences for entries named in this document (tags omitted). A change or cut given only in a name is not applied to a line headed by its entry.
UniProt Q9H2U2: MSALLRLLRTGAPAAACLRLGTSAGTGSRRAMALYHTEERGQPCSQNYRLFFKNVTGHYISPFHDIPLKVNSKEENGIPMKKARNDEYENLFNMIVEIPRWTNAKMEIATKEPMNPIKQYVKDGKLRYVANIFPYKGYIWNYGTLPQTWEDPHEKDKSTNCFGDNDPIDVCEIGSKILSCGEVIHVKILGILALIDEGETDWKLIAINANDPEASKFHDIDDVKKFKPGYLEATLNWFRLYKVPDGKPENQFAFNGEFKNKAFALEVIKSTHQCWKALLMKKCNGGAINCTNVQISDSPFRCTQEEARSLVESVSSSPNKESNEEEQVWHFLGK
UniProt P54277: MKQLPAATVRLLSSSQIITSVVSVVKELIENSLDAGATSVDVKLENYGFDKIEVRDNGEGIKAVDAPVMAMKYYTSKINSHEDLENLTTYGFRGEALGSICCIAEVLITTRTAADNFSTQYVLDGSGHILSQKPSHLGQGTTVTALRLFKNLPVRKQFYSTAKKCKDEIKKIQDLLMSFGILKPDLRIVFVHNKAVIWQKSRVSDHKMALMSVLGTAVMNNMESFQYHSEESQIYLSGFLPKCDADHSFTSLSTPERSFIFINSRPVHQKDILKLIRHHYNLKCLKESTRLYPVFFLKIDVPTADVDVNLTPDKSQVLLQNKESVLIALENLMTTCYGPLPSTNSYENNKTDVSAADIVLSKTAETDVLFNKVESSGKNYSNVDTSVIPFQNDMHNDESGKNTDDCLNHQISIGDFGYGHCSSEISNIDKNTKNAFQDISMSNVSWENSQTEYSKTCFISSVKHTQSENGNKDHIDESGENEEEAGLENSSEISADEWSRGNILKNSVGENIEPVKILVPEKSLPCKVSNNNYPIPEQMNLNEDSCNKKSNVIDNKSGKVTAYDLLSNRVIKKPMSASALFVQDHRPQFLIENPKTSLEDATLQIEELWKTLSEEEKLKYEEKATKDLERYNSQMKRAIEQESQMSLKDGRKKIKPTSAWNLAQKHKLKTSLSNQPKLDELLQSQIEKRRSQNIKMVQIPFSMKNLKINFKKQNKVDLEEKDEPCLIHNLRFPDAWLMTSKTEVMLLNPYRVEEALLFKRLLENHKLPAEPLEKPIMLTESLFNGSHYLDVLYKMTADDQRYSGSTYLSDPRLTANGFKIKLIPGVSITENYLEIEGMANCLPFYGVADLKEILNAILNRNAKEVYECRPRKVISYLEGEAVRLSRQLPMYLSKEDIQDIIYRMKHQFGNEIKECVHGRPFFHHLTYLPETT
UniProt Q8NBL1: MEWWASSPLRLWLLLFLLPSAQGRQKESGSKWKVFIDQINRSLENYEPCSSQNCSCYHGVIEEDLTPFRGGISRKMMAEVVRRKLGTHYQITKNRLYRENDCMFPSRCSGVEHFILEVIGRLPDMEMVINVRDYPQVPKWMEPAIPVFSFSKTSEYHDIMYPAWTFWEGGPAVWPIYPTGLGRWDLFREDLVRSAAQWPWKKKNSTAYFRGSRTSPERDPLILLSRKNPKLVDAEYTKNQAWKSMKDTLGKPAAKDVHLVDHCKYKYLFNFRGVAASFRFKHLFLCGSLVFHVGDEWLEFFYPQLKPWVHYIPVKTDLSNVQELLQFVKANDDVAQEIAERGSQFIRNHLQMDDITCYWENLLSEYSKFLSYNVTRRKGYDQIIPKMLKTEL
UniProt Q9Y535: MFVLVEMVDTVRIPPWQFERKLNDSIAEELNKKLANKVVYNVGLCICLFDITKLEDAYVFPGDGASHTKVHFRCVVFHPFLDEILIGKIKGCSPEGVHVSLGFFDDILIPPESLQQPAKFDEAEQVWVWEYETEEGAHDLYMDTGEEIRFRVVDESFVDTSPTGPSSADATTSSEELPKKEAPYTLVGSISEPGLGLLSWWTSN
UniProt Q9NR33: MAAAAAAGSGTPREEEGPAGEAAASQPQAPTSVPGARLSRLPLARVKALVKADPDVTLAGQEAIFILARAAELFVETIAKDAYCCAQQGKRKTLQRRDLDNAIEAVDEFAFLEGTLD
UniProt O15305: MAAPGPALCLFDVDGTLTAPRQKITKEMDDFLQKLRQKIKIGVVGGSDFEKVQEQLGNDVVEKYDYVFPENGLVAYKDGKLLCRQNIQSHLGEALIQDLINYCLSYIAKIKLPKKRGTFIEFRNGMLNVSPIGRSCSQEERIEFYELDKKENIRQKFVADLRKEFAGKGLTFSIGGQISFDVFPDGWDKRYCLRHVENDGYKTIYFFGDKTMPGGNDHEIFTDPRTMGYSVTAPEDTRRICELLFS
UniProt P0CAP2, whole entry, looked up: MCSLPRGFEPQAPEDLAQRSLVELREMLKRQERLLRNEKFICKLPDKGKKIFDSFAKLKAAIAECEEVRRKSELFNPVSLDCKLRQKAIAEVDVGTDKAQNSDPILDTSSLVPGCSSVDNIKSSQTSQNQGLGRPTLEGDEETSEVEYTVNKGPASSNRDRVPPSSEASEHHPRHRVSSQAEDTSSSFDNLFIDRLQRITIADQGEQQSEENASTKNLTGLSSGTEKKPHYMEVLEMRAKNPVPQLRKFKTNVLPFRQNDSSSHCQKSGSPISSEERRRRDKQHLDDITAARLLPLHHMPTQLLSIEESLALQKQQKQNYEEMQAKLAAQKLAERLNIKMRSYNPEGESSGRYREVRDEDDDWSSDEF
UniProt P05423: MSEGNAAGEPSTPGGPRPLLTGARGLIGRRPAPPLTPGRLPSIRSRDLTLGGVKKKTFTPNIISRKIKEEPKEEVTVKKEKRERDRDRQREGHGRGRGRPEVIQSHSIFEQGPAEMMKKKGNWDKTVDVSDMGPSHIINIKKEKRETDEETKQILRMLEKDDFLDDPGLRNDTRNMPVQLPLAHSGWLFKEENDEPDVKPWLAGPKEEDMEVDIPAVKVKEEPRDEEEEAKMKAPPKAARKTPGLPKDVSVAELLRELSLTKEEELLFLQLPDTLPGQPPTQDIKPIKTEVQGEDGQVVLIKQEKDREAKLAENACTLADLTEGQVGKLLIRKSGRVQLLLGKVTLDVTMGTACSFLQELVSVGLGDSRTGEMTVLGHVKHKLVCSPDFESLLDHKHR
UniProt Q9Y244: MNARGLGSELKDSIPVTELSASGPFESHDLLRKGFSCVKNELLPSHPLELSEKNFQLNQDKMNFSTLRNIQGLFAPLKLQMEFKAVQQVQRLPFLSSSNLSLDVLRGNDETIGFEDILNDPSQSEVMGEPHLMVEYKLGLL
UniProt Q15054: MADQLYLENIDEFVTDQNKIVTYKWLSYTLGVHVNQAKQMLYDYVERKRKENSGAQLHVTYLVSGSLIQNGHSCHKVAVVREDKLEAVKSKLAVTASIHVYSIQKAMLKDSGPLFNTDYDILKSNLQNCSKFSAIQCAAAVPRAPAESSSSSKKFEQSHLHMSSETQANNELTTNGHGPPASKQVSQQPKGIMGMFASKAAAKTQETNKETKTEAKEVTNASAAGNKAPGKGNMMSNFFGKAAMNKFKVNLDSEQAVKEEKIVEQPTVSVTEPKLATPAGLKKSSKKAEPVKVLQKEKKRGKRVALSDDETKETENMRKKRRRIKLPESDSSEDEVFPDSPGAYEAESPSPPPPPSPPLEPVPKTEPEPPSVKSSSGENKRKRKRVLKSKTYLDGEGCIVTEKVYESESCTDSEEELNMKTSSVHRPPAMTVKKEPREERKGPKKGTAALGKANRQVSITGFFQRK
UniProt P29590: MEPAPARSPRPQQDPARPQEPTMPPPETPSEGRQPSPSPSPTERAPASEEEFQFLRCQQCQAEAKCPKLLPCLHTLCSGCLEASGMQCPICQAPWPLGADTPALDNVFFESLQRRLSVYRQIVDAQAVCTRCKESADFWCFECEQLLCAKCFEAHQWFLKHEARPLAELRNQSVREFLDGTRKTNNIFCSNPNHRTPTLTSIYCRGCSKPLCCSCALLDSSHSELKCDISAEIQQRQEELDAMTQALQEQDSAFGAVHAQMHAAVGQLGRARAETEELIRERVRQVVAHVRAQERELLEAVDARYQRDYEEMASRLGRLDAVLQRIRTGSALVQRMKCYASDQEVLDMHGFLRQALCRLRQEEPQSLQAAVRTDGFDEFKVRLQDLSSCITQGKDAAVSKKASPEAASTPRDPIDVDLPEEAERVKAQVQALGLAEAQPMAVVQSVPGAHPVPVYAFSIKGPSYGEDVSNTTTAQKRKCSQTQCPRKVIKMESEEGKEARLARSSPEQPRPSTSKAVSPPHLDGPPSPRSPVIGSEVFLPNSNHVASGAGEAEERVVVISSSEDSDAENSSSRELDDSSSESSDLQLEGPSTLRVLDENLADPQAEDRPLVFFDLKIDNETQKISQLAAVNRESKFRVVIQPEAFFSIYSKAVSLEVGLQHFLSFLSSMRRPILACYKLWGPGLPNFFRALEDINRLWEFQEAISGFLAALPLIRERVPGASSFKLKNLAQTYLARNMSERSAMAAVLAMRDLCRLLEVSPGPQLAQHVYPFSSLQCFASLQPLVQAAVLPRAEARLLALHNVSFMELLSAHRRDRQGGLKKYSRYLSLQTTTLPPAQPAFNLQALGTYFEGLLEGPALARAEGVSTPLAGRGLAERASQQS
UniProt O43660: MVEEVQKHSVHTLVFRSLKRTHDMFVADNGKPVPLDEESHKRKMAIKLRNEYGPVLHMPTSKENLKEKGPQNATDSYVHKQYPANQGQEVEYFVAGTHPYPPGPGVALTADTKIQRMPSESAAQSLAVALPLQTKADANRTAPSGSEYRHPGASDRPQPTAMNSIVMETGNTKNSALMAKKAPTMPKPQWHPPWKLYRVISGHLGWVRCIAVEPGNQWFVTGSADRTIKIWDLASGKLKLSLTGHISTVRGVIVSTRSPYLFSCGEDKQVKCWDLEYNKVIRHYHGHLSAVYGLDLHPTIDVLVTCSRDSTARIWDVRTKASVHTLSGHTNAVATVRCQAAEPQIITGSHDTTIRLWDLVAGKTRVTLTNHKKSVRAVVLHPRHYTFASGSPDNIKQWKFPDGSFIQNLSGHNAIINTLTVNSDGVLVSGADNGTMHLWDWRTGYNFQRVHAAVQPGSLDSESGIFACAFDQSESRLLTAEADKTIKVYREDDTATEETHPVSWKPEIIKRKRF
UniProt Q9HAB8: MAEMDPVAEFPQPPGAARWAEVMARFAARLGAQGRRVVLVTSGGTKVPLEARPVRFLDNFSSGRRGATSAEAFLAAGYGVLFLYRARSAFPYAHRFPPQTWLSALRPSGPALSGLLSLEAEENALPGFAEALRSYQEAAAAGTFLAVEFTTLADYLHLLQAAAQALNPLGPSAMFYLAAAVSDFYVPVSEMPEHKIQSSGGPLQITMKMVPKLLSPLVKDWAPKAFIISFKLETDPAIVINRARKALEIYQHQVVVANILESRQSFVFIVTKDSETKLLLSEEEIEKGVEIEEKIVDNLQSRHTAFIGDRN
UniProt Q9Y2Y1: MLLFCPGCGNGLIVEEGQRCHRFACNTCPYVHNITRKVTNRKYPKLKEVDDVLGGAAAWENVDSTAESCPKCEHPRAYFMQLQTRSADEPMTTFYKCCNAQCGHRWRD
UniProt Q9NZ53: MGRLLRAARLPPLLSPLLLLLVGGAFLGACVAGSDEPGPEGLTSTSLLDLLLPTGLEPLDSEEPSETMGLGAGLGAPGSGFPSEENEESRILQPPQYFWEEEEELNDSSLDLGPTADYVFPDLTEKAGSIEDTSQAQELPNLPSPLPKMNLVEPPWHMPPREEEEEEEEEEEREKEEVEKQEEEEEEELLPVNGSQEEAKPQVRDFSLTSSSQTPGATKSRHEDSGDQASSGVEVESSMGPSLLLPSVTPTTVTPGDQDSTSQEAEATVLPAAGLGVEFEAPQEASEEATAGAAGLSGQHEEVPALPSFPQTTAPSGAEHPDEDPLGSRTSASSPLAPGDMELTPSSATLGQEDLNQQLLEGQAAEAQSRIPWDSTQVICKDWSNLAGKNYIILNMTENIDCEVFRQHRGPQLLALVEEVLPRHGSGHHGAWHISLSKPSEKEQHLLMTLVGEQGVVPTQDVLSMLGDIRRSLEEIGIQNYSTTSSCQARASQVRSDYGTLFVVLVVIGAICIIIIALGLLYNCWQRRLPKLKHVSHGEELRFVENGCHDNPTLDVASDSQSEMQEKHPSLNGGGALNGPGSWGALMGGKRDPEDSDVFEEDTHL
UniProt Q15165: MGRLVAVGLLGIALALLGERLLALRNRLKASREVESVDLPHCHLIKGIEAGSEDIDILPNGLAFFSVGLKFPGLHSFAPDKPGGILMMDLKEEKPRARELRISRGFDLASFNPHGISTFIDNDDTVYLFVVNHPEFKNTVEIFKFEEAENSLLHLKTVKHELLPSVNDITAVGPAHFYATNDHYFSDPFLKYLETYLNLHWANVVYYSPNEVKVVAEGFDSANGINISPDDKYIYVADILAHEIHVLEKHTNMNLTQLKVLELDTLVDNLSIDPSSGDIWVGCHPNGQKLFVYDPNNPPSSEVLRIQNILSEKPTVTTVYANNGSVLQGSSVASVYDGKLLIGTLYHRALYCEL
UniProt Q9HCU8: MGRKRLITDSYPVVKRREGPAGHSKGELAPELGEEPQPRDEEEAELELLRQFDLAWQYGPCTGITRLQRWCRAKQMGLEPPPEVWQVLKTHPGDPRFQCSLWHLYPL

Assay in all cases: log2 fold change, soluble protein after heating vs DMSO (PISA); higher = thermal stabilisation; K562 lysate, 10 uM; active = over 0.2 and 3.5 SD of the protein, either way, in both replicates (recomputed)
Compound in experiment [1]: NCC(=O)Nc1ccc(-n2nc(C(F)(F)F)cc2-c2ccc3c(ccc4ccccc43)c2)cc1
Put shortly: (§1)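 K562 pellets were dounce-homogenised in PBS pH 7.4 containing 1 mM MgCl2, and the crude extract, at 1 mg/mL protein, was exposed to 10 μM compound for 30 min. Aliquots were heated for 3 min across 48°C-58°C, pooled, brought to 0.5% NP-40 at 4°C and spun at 21,000xg for 90 min, with the supernatant taken as soluble protein. TMTpro 16plex LC-MS/MS with equalised channel sums quantified that protein. Values are log-two fold changes in thermal stability relative to solvent controls, taken from duplicates.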

Compound in the next experiment: O=C(CCCCCCC(=O)Nc1ccccc1)NO [vorinostat]
Put shortly: as §1

Compound in another experiment: O=C(O)c1ccc2c(c1)nc(Nc1cccc(Cl)c1)c1ccncc12 [silmitasertib]
In outline:
as §1

Compound in experiment [2]: O=C1NC(=O)C(c2cnc3ccccn23)=C1c1cn2c3c(cc(F)cc13)CN(C(=O)N1CCCCC1)CC2
In outline:
as §1

Compound in a further experiment: c1cn2cc(-c3ccc4cn[nH]c4c3)nc(Nc3ccc(N4CCOCC4)cc3)c2n1 [entospletinib]
Put shortly:
as §1

The other results are listed elsewhere or left out.

With PPA2 (UniProt Q9H2U2), the log2 fold change was inactive: 0.004 in experiment [1]; inactive: -0.03 with vorinostat; inactive: -0.013 with silmitasertib; inactive: 0.019 in experiment [2]; inactive: 0.014 with entospletinib.

Consider POU2F1 isoform 6 (UniProt P14859), for which the log2 fold change in experiment [1] was inactive: -0.012; with vorinostat, inactive: -0.141; with silmitasertib, inactive: -0.02; in experiment [2], inactive: -0.022; with entospletinib it was inactive: -0.022.

With PMS1 (UniProt P54277), the log2 fold change in experiment [1] is inactive: 0.01; with vorinostat it was active: -0.342; with silmitasertib it was inactive: 0.018; in experiment [2] it was inactive: 0.026; with entospletinib it was inactive: -0.011.

On to PPFIA1 (UniProt Q13136), for which the log2 fold change in experiment [1] was inactive: 0.013; with vorinostat, inactive: 0.003; in the experiment with silmitasertib it was inactive: -0.007; in experiment [2], inactive: -0.032; with entospletinib it was inactive: -0.015.

POGLUT1 (UniProt Q8NBL1): the log2 fold change in experiment [1] is inactive: -0.02; with vorinostat it was inactive: 0.078; in the experiment with silmitasertib, inactive: 0.058; in experiment [2], inactive: 0.023; with entospletinib, inactive: -0.029.

POLR3H (UniProt Q9Y535): the log2 fold change was inactive: 0.003 in experiment [1]; inactive: -0.205 with vorinostat; inactive: -0.129 with silmitasertib; inactive: 0.063 in experiment [2]; inactive: -0.031 with entospletinib.

Take POLE4 (UniProt Q9NR33): the log2 fold change in experiment [1] is inactive: 0.077; with vorinostat it was inactive: 0.083; with silmitasertib, inactive: -0.066; in experiment [2], inactive: -0.027; with entospletinib, inactive: -0.104.

Turning to PMM2 (UniProt O15305), the log2 fold change in experiment [1] was inactive: 0.022; in the experiment with vorinostat it was inactive: -0.082; with silmitasertib it was inactive: 0.059; in experiment [2], inactive: -0.038; with entospletinib, inactive: -0.01.

On to POT1 (UniProt Q9NUX5), for which the log2 fold change was inactive: 0.098 in experiment [1]; inactive: -0.008 in the experiment with vorinostat; inactive: 0.081 with silmitasertib; inactive: -0.021 in experiment [2]; inactive: -0.059 with entospletinib.

Turning to POLR2M (UniProt P0CAP2), the log2 fold change was inactive: 0.034 in experiment [1]; inactive: 0 in the experiment with vorinostat; inactive: -0.029 with silmitasertib; inactive: -0.027 in experiment [2]; inactive: 0.076 in the experiment with entospletinib.

For POLR3D (UniProt P05423), the log2 fold change is inactive: 0.007 in experiment [1]; inactive: -0.063 with vorinostat; inactive: -0.021 with silmitasertib; inactive: 0 in experiment [2]; inactive: -0.016 with entospletinib.

For PNPT1 (UniProt Q8TCS8), the log2 fold change in experiment [1] is inactive: 0.007; in the experiment with vorinostat, inactive: 0.056; with silmitasertib it was inactive: -0.02; in experiment [2] it was inactive: -0.007; in the experiment with entospletinib, inactive: 0.004.

As for PMPCA (UniProt Q10713), the log2 fold change in experiment [1] is inactive: 0.031; with vorinostat, inactive: 0.033; in the experiment with silmitasertib it was inactive: -0.044; in experiment [2] it was inactive: 0.003; with entospletinib, inactive: -0.019.

For POMP (UniProt Q9Y244), the log2 fold change in experiment [1] is inactive: -0.016; with vorinostat it was inactive: -0.028; with silmitasertib it was inactive: 0.05; in experiment [2] it was inactive: 0.014; in the experiment with entospletinib it was inactive: -0.12.

With POLD3 (UniProt Q15054), the log2 fold change in experiment [1] was inactive: 0.045; with vorinostat, active: -0.335; with silmitasertib it was inactive: -0.02; in experiment [2], inactive: -0.03; with entospletinib, inactive: 0.011.

As to PML (UniProt P29590), the log2 fold change in experiment [1] was inactive: -0.006; with vorinostat, inactive: -0.107; with silmitasertib it was inactive: 0.017; in experiment [2], inactive: -0.047; in the experiment with entospletinib it was inactive: 0.014.

PNPLA6 (UniProt Q8IY17): the log2 fold change in experiment [1] is inactive: 0.022; with vorinostat it was inactive: -0.077; with silmitasertib it was inactive: 0.037; in experiment [2], inactive: 0.085; with entospletinib it was inactive: 0.098.

In the case of PLRG1 (UniProt O43660), the log2 fold change was inactive: 0.05 in experiment [1]; inactive: 0.038 with vorinostat; inactive: -0.026 with silmitasertib; inactive: -0.041 in experiment [2]; inactive: 0.04 with entospletinib.

Turning to POLR2G (UniProt P62487), the log2 fold change in experiment [1] is inactive: 0.001; with vorinostat it was inactive: 0.116; in the experiment with silmitasertib, inactive: -0.043; in experiment [2], inactive: -0.03; in the experiment with entospletinib it was inactive: 0.014.

For the target PLOD1 (UniProt Q02809), the log2 fold change in experiment [1] was inactive: -0.011; with vorinostat, inactive: 0.072; with silmitasertib, inactive: -0.017; in experiment [2], inactive: -0.024; with entospletinib, inactive: -0.01.

With PPCS (UniProt Q9HAB8), the log2 fold change in experiment [1] was inactive: 0.049; in the experiment with vorinostat it was inactive: 0.067; with silmitasertib it was inactive: 0.017; in experiment [2] it was inactive: -0.001; in the experiment with entospletinib, inactive: 0.004.

Turning to POLR3K (UniProt Q9Y2Y1), the log2 fold change is inactive: 0.023 in experiment [1]; inactive: 0.038 with vorinostat; inactive: 0.024 with silmitasertib; inactive: 0.005 in experiment [2]; inactive: -0.011 in the experiment with entospletinib.

For the target PODXL2 (UniProt Q9NZ53), the log2 fold change in experiment [1] was inactive: 0.045; with vorinostat, inactive: 0.085; in the experiment with silmitasertib, inactive: -0.132; in experiment [2], inactive: 0.023; with entospletinib, inactive: -0.162.

In the case of PON2 (UniProt Q15165), the log2 fold change in experiment [1] was inactive: -0.016; with vorinostat, inactive: 0.073; with silmitasertib, inactive: -0.013; in experiment [2], inactive: 0.005; with entospletinib, inactive: 0.008.

Regarding POLD4 (UniProt Q9HCU8), the log2 fold change is inactive: -0.068 in experiment [1]; inactive: -0.027 with vorinostat; inactive: -0.029 with silmitasertib; inactive: -0.094 in experiment [2]; inactive: -0.063 with entospletinib.
